Laboratory results from patent US8470772B2, “Leptin agonist and methods of use” (Temple University—Of The Commonwealth System of Higher …, priority 2008, dated 2013).
Part of at least one peptide drawing is inferred or uncertain, most often the ends. No end group written: not given here.

Tests used:
MCF-7 cells = assay: MCF-7 cell stimulation (cell growth) assay, cell counts by trypan blue exclusion; assay type: cell-based, human
Source text: (§1) For the evaluation of the biological activity of the synthesized leptin Site III peptide fragments, human cell lines were selected in which the ObR expression level is known. Two ObR-positive human cell models were used: MCF-7 breast cancer cells and DU-45 prostate cancer cells. Both cell lines express ObR, and leptin and leptin analogues stimulate their growth (C. Garofalo, et al., Clin. Cancer Res., 2004, 10, 6466-6475; C. Garofalo, et al., Clin. Cancer Res., 2006, 12, 1447-1453). Normal mammary epithelial MCF-10 cells lacking ObR were used as a negative control (X. Hu, et al., J. Natl. Cancer Inst., 2002, 94, 1704-1711).
Biological activity of the Site III peptides was assayed as follows. MCF-7 cells were stimulated with 6 nM full-sized leptin. The smaller leptin fragments and analogs were added to the cell culture at a concentration of 10 nM, 100 nM or 1 μM. Leptin at […] concentration stimulated MCF-7 cell growth by approximately 40%, in line with previous observations (C. Garofalo, et al., Clin. Cancer Res., 2004, 10, 6466-6475). All Site III peptides bound to the extracellular domain of ObR as documented by dot-blot or Western-blot analysis. […] In fact, it reversed leptin induced stimulation of MCF-7 cells at as low as 10 nM peptide concentration, with an additional 50% reduction in cell counts at 1 μM. When the assay was run at a more reliably measurable 1 μM peptide concentration, a consistent 6% decrease in cell numbers could be observed compared to the leptin only samples. In summary, in the presence of exogenously added full-sized leptin these assays verified the strong antagonist activity of the Site III Ala,Ala mutant.
(§2) The cell stimulation activity of the Site III peptides was assayed as follows. Human leptin was purchased from R&D Systems and used at a concentration of 100 ng/mL (approximately 6 nM). MCF-7 and DU-45 cells naturally expressing ObR were grown in a standard medium DMEM:F12 plus 5% fetal bovine serum. MCF-10 was grown in serum-free mammalian epithelial growth medium supplemented with 100 ng/mL cholera toxin. Seventy percent confluent cultures were synchronized in serum-free medium (DMEM plus 10 μM FeSO4, plus 0.5% albumin) for 24 h and then treated with leptin and/or peptides (different doses) for 5 days. Cell counts before and after treatment were determined by counting the cells using trypan blue exclusion. All assays were conducted in triplicate and repeated at least twice.

DU-45 cells = assay: DU-45 cell stimulation (proliferation) assay; assay type: cell-based, human
Source text: as §1
as §2, with “All assays were conducted in triplicate and repeated at least twice.” left out

[1] = 1 μM peptide, in the presence of leptin

SGYAAEVVALSRLQGS-NH2 [Site III Ala,Ala, Ser-Gly-Tyr-Ala-Ala-Glu-Val-Val-Ala-Leu-Ser-Arg-Leu-Gln-Gly-Ser]
additional reduction in cell counts (MCF-7 cells; [1]): 50%
decrease in cell numbers compared to the leptin only samples (MCF-7 cells; [1]): 6%
antagonistic activity on leptin-induced MCF-7 cell proliferation (MCF-7 cells; in the presence of exogenous leptin): antagonized leptin-induced cell proliferation in a concentration-dependent manner
peptide concentration at which leptin induced stimulation of MCF-7 cells was reversed (MCF-7 cells; in the presence of leptin): 10 nM
agonistic activity on MCF-7 cells (MCF-7 cells; without leptin): strong agonistic activity
peptide concentration of maximum cell stimulation (MCF-7 cells; without leptin): 1 µM
antagonist activity on DU-45 cells (DU-45 cells; in the presence of leptin): moderate antagonist activity
agonist activity on DU-45 cells (DU-45 cells; without leptin): medium-to-strong agonist
